# From patent US20250360071A1, “AGENT FOR INDUCING CILIUM” (MED R&D Co. Ltd, priority 2022, published 2025)
# For some of these results: At least one structure is not confirmed: it was looked up by name or label, or the drawing left a doubt. Some entries share one result that the patent states for a list of compounds.
# Experiments:
# [1] = tested on: C3H male mouse; assay: Hair growth promoting effect in vivo, application to depilated dorsal skin, Experimental Example 5
# Experimental: The oleanane-type triterpenoid was applied to the dorsal skin of a mouse and the hair growth promoting effect was examined. Maslinic acid was used as the oleanane-type triterpenoid. In addition, for comparison, a group in which minoxidil was used and a control group in which only a solvent was applied were prepared.
# FIG. 12 is a schematic view showing an experimental schedule. After acclimatization of a C3H male mouse, the dorsal skin was depilated with a shaver and a depilatory cream. Thereafter, 150 μL of 1% minoxidil (n=8), 1% maslinic acid (n=6), or a solvent (n=8) was applied to the mouse in each group every day for 20 days, and the mouse was observed over time.
# It is known that the hair cycle of a mouse has three stages of an anagen, a catagen, and a telogen. During the anagen (the 1st day to the 16th day), the hair follicle grows into the deep subcutaneous part. In the catagen (the 17th day to the 19th day), the hair follicle stops growing and regresses to the upper subcutaneous part. In the telogen (the 20th day to the 29th day), the hair shaft is in a state where it can be lost at any time. It is known that the color of the dorsal skin of a mouse changes to pink, gray, and black due to the hair cycle. FIG. 13 is a view showing a change in the color of the dorsal skin of a mouse due to the hair cycle.
# [2] = tested on: dorsal skin; assay: Transcriptome analysis and extended network analysis of dorsal skin, Experimental Examples 6 and 8; type: in vivo, mouse; conditions: extended network analysis of the group's dataset
# Experimental: A mouse in each group of Experimental Example 5 and a mouse in the group which had been subjected to the same treatment as in Experimental Example 5 using 1% tieghemelin (n=6) were euthanized on the 20th day, and the dorsal skin was collected and subjected to transcriptome analysis.
# (§1) Extended network analysis was performed based on the results of the transcriptome analysis in Experimental Example 6. FIGS. 20 to 22 are views showing the results of the extended network analysis. FIG. 20 is an analysis result obtained from a dataset of the minoxidil treatment group, FIG. 21 is an analysis result obtained from a dataset of the maslinic acid treatment group, and FIG. 22 is an analysis result obtained from a dataset of the tieghemelin treatment group. In FIGS. 20 to 22, a white circle indicates a gene with increased expression, and a black circle indicates a gene with decreased expression. In addition, the size of the circle indicates the magnitude of a change in expression level.
# [3] = tested on: dorsal skin; assay: Gene ontology (GO), GO enrichment and tissue-specific expression analysis of transcriptome, Experimental Example 7; type: in vivo, mouse; conditions: 20th day
# Experimental: Gene ontology (GO) analysis and GO enrichment analysis were performed based on the results of the transcriptome analysis in Experimental Example 6.
# Subsequently, term enrichment analysis of the genes with expression increased specifically with respect to the skin tissue was performed. Using tissue-specific expression analysis (TSEA), genes related to the skin tissue were filtered, and functions that were specifically enriched in the maslinic acid treatment group and the tieghemelin treatment group and were not enriched in the minoxidil treatment group were selected.
# [4] = tested on: Iqcb1; assay: Iqcb1 expression from transcriptome / extended network analysis, Experimental Example 8; type: in vivo, mouse; conditions: dorsal skin, 20th day, 1% applied daily
# Experimental: as §1
# DDX58 is an innate immune receptor that senses viral nucleic acids in the cytoplasm and activates a downstream signal transduction cascade leading to the production of type I interferons or inflammatory cytokines. IQCB1 is a protein known to be involved in formation of cilium.
# [5] = tested on: dorsal skin; assay: Fluorescence immunostaining of dorsal skin tissue sections, Experimental Example 10; type: in vivo, mouse; conditions: 20th day
# Excerpt: A mouse in each group of Experimental Examples 5 and 6 was euthanized on the 20th day, the dorsal skin was collected, and the tissue section was subjected to immunostaining.
# FIG. 23 is a photomicrograph showing the results of detecting the expressions of β-catenin and K14 by fluorescence immunostaining. In addition, the nuclei were stained with 4′,6-diamidino-2-phenylindole (DAPI). The β-catenin is a hair growth promoting marker and is also a marker for the start of the anagen. K14 is an epidermal marker and is known to increase with the differentiation of hair follicle stem cells.
# FIG. 24 is a photomicrograph showing the results of detecting the expression of VEGF by fluorescence immunostaining. In addition, the nuclei were stained with DAPI. VEGF is known to improve the vascularization of hair follicles, increase the size of hair follicles and hair, and promote the growth and circulation of hair follicles.
# [6] = fluorescence immunostaining, dorsal skin
smiles,measurement,setting,value
"Nc1cc(N2CCCCC2)nc(N)[n+]1[O-] [minoxidil, reference compound]","black area indicating the late anagen, vs control group","[1]; 10th day, 1% applied daily",larger black area
same,speed of a transition from the telogen to the anagen (order),"[1]; 10th day, 1% applied daily",Minoxidil≈Maslinic acid>Control group
same,hair cycle stage observed on the 20th day,"[1]; 20th day, 1% applied daily",transitioned to the next telogen
same,speed of transition to the telogen after the anagen and the catagen (order),"[1]; 20th day, 1% applied daily",Minoxidil=Maslinic acid>Control group
same,hair cycle stage observed on the 10th day,"[1]; 150 μL of 1% applied daily, control transitioned from telogen to anagen on the 10th day",transition to the late anagen
same,number of species of the expanded protein-protein interaction (PPI) networks,[2],≥ 400
same,number of genes with decreased expression common between the minoxidil and maslinic acid treatment groups,[3],Seventy-two
same,number of genes with decreased expression common between the minoxidil and tieghemelin treatment groups,[3],Ninety-four
same,number of genes with increased expression common between the minoxidil and maslinic acid treatment groups,[3],Eighty-one
same,number of genes with increased expression common between the minoxidil and tieghemelin treatment groups,[3],One-hundred-twenty-eight
same,Iqcb1 expression,[4],upregulated
same,sizes of the hair follicle and the hair shaft,[5]; dorsal skin section,increased
same,expression of K14,[5]; [6],increase in the expression
same,expression of VEGF,[5]; [6],increased
same,expression of β-catenin,[5]; [6],increase in the expression
C[C@@H]1O[C@@H](O[C@@H]2[C@@H](O)[C@H](O[C@@H]3[C@@H](O)[C@@H](O)[C@H](O[C@H]4[C@H](OC(=O)[C@]56CCC(C)(C)C[C@H]5C5=CC[C@@H]7[C@@]8(C)C[C@H](O)[C@H](O[C@@H]9O[C@H](C(=O)O)[C@@H](O)[C@H](O)[C@H]9O)[C@@](C)(CO)[C@@H]8[C@H](O)C[C@@]7(C)[C@]5(C)C[C@H]6O)OC[C@H](O)[C@@H]4O)O[C@H]3C)OC[C@H]2O)[C@H](O)[C@H](O)[C@H]1O [tieghemelin],number of species of the expanded protein-protein interaction (PPI) networks,[2],≥ 400
